Assay results as given in US5256559A (Biogen, Inc., priority 1991, dated 1993).

Legend:
[1] = general procedure: Boc solid-phase peptide synthesis; Boc-Leu-OCH2-PAM resin (1% DVB); conditions: whole synthesis, scale 0.55 mmoles
[2] = general procedure: Boc solid-phase peptide synthesis; Boc-O-benzyl-L-Thr-O-resin (1% DVB); conditions: whole synthesis, scale 0.259 meq
[3] = general procedure: Boc solid-phase peptide synthesis; Boc-Leu-O-resin (1% divinylbenzene resin (DVB)); conditions: whole synthesis
[4] = general procedure: Boc solid-phase peptide synthesis; Boc-Leu-O-resin (1% DVB); conditions: whole synthesis, scale 0.259 meq

Substance: H-EEIFEEYL-OH
- crude yield [1]: 17.9%

Substance: H-LYEEPIEEFDGNNHSEPNPT-OH
- crude mass [2]: 120 mg
- crude HPLC purity ([3]; reverse-phase HPLC, Vydac C4 or Aquapore RP-300 C8, absorbance at 215 nm, scale of the general procedure 0.259 meq): >90%
- crude yield ([3]; scale of the general procedure 0.259 meq): 19.9%

Substance: H-Thr-Pro-Asn-Pro-Glu-Ser-His-Asn-Asn-Gly-Asp-Phe-Glu-Glu-Ile-Pro-Glu-Glu- Tyr-Leu-OH
- crude mass [4]: Approximately 100 mg
- crude HPLC purity ([3]; 214 nm, scale of the general procedure 0.259 meq): >90%
- crude yield ([3]; scale 0.259 meq): 17%
